The list shows a part of the results.

Sequences of proteins named here, by UniProt entry; tags and fusion partners are left off.
UniProt Q0JBA9, entry or part of it: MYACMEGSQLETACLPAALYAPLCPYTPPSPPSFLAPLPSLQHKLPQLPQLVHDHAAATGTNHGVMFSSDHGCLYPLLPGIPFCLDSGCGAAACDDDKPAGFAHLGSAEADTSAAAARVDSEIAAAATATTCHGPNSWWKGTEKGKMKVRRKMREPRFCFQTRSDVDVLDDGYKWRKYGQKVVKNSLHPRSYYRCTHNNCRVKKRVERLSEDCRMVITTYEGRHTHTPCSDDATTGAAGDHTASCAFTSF

The experiment addresses OsWRKY34 (Oryza sativa, UniProt Q0JBA9 1-250). The experiment can be described thus: protein-binding microarray (RPBM); PBS, 2% BSA, 51.3 ng/ul salmon testes DNA, 50 uM zinc acetate, 200 nM TF, 25 C, 1 h; high values mean tight binding. Conditions: protein: recombinant; tags: N-terminal polyhistidine and DsRed monomer fusion (pET32a); label: CyDye5-dUTP incorporated in the synthesized complementary strand; 3' TTTTT single-stranded linker to array surface; dsDNA, one strand shown. The essentials: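 Transcription factors were each fused at the N-terminus to a polyhistidine tag plus DsRed and expressed in E. coli BL21-CodonPlus before Ni–NTA purification. Binding to a double-stranded custom Agilent array was carried out with 200 nM protein at 25 °C for 1 h in PBS, 2% BSA, salmon testes DNA and 50 µM zinc acetate. The binding signal is per-feature fluorescence intensity, in arbitrary units, on an Axon 4000B scanner.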
For the sequence “TCTTTTTTCCATCCATCTTTTTTTCGCCGTTCTTTCCGGTCGGAGTCACCTAGTGCAG”, the binding signal is 8220 fluorescence intensity (a.u.). “CGCCGTTGACTTTTTGTTTAACGTTTGACCATTTGTCTTACGGAGTCACCTAGTGCAG”: the binding signal is 24400 fluorescence intensity (a.u.). Take “AGAAGCTTTCCGAGGGTGGGCCCGCGTCGTCAGTGTGTGACGGAGTCACCTAGTGCAG”: the binding signal is 12700 fluorescence intensity (a.u.). The value for “AAGCTCTCCGACGAGCCGTATTATATTGCCACTATCCTCGCGGAGTCACCTAGTGCAG” was 9220 fluorescence intensity (a.u.); that for “GGAGGGAGTAGTAAATAGTGGTTTTGGTCTTGTTTCAAATCGGAGTCACCTAGTGCAG” was 8450 fluorescence intensity (a.u.).

Turning to “CATGCCTGTTCACGATCTGCTGGCATTTGTGAACCATATGCGGAGTCACCTAGTGCAG”, the binding signal is 8870 fluorescence intensity (a.u.). The same measure for “ACAAAATATTCCCTCCGTCTTAGTCGTTTTGATATTTTTCCGGAGTCACCTAGTGCAG”: 8060 fluorescence intensity (a.u.); for “ACGTGTGTGGGGATCCAGTTACAGCCCAACTCGTGTTGACCGGAGTCACCTAGTGCAG”: 8410 fluorescence intensity (a.u.); for “TAATAGCTTATTTTATTTTGCATGTTGTTAAAATTTTTTGCGGAGTCACCTAGTGCAG”: 8540 fluorescence intensity (a.u.). For “GTATGCATGTGTTCTTCGGTGGACCGGGCCAATGTCCCAACGGAGTCACCTAGTGCAG”, the binding signal was 9060 fluorescence intensity (a.u.). The value for “GACACAACCCTACATGTTTAAGGACCGTCTATATAATTTACGGAGTCACCTAGTGCAG” was 9990 fluorescence intensity (a.u.); that for “ATTTTATATGATTTCTTACAGACTTTTTTTATCATTTTACCGGAGTCACCTAGTGCAG” was 9760 fluorescence intensity (a.u.); that for “AGTATAACTTTTTTTTTGTCACTCTGTTATCTCACATCTGCGGAGTCACCTAGTGCAG” was 8760 fluorescence intensity (a.u.). Turning to “TATACGTGATTTCTCTTTTTAATTTTTTTCATAATTTTTTCGGAGTCACCTAGTGCAG”, the binding signal is 8540 fluorescence intensity (a.u.). As to “CGCATATATACGTGCGGGCCACCTTTCTAGTTTATAGTTACGGAGTCACCTAGTGCAG”, the binding signal is 8120 fluorescence intensity (a.u.). Regarding “AAGTGCTGCAAAACGGTATGTTTTTGTCTTTGCCATCTTGCGGAGTCACCTAGTGCAG”, the binding signal was 8140 fluorescence intensity (a.u.). Turning to “TATCTCGTGGCACCTGTCACCCCTCCGCTGCCGATCCGACCGGAGTCACCTAGTGCAG”, the binding signal was 10100 fluorescence intensity (a.u.). Turning to “GCAAGAAGCGATCGATTCGGCGTGTGCTGGATCGGTTTCCCGGAGTCACCTAGTGCAG”, the binding signal is 8180 fluorescence intensity (a.u.). Consider “GTGGCCTTTGGGAGCGGTGACCTGCTGCTCCATCCTTCATCGGAGTCACCTAGTGCAG”, for which the binding signal was 9620 fluorescence intensity (a.u.).

In the case of “AACTAACTGGCACGCCCTCATATCACCAACCTTTGGACCTCGGAGTCACCTAGTGCAG”, the binding signal was 8560 fluorescence intensity (a.u.). The same measure for “ACCGTTTGCCCCTATTATGTTAATTCTTGTTAACGGTGTTCGGAGTCACCTAGTGCAG”: 9120 fluorescence intensity (a.u.). Consider “GATCCTATTTTGAAACCTAACTACCAATTTAACTTTACTTCGGAGTCACCTAGTGCAG”, for which the binding signal was 8860 fluorescence intensity (a.u.).

On to “CGAGTATACTGTCGTTCAACCCTTTTCCAGTTCATACGTACGGAGTCACCTAGTGCAG”, for which the binding signal is 9940 fluorescence intensity (a.u.). Regarding “GGGGATCGGAGGGTGGGGATACGCATGGTGGATGGTAGTGCGGAGTCACCTAGTGCAG”, the binding signal was 12600 fluorescence intensity (a.u.). For “ATCCGATCCTTTGTTGGTTTTGTTTTTTTTTGTGTTCTATCGGAGTCACCTAGTGCAG”, the binding signal was 13500 fluorescence intensity (a.u.). Take “CCCAATTAAATGCCCGAATCATTCTTCTCGGCCCACTCTGCGGAGTCACCTAGTGCAG”: the binding signal was 8430 fluorescence intensity (a.u.). Consider “CTGCCGTTTCGTCTATTCTGGCCACACTAAACAATGAGCACGGAGTCACCTAGTGCAG”, for which the binding signal was 10200 fluorescence intensity (a.u.). As for “CCGCTCCGTCCTCGGCCTTTTCGCCCTCTTCTTCTTCGTCCGGAGTCACCTAGTGCAG”, the binding signal is 11500 fluorescence intensity (a.u.). The value for “GGCTCCATGCCTGCTGCTATCTTCAATATGTCCTACCTGCCGGAGTCACCTAGTGCAG” was 8440 fluorescence intensity (a.u.); that for “CCTACAGTTTGTCCTCTGCTGCTTACATGTTTTTCTTATTCGGAGTCACCTAGTGCAG” was 10500 fluorescence intensity (a.u.).

“ATCACCTAACCCATCCATGGCTTTGTTTGATCGTATCTCTCGGAGTCACCTAGTGCAG”: the binding signal was 8060 fluorescence intensity (a.u.). Take “ATTACTGTGCACAAGCTGCTCTTGATCAATTCAATTTTGCCGGAGTCACCTAGTGCAG”: the binding signal is 12200 fluorescence intensity (a.u.). For “GTTCTCGTGTTTTATTTCCGTTGTAACGCACGGTTTTTTTCGGAGTCACCTAGTGCAG”, the binding signal is 8510 fluorescence intensity (a.u.).

Regarding “ATCAGCCTCATGCCCTTGTAGTCCATCGATCTGTCAGATCCGGAGTCACCTAGTGCAG”, the binding signal is 13300 fluorescence intensity (a.u.). The value for “ATCCATCGTCATCAACCGGCCCGTTCTGTTCGAACCCACACGGAGTCACCTAGTGCAG” was 9320 fluorescence intensity (a.u.). The same measure for “CGCACGCCCGCACGCACCACCACCTGCTGAAATCCCTGCGCGGAGTCACCTAGTGCAG”: 8140 fluorescence intensity (a.u.); for “GTGCTCATGACATTGTCCGTCTTAGTGTGGGTTGGGACCCCGGAGTCACCTAGTGCAG”: 12800 fluorescence intensity (a.u.); for “CCCATCTTCCTACGTAAACCCAACAGCCGGCCCACTCAGACGGAGTCACCTAGTGCAG”: 10300 fluorescence intensity (a.u.).

Regarding “GTTTAAACCGCTGCTCGCCAACTTGATTTACGAACAGACACGGAGTCACCTAGTGCAG”, the binding signal was 8230 fluorescence intensity (a.u.). As to “TTCACCTTTCTTTCGTTCGGCCTAAATTATGATTTGTTTTCGGAGTCACCTAGTGCAG”, the binding signal was 9200 fluorescence intensity (a.u.).

Regarding “TCCGCGACGCTGCAATAATTCGCTTCCATATTTGCTGCCGCGGAGTCACCTAGTGCAG”, the binding signal is 8590 fluorescence intensity (a.u.). Regarding “CTGTTTTTCGCGCGCACGTTCCCCAAACTTCTAGACAATACGGAGTCACCTAGTGCAG”, the binding signal is 8060 fluorescence intensity (a.u.).
